Test results from PubChem BioAssay AID1347075 (National Center for Advancing Translational Sciences (NCATS), 2019).
Where “and” joins values, the source holds several entries; their conditions need not be identical. Equal entries are not always repeated. In all, about 400,000 compounds went through this assay and about 5,500 (1.4%) were called active. The shares of active, inactive and inconclusive entries below differ from those in the screen. The call rests on the fitted dose curve; in most records, active means well fitted cell-killing curve with a large enough effect; inconclusive means small, poorly fitted or top-dose-only effect, or effect the other way; inactive means flat fitted curve, though single readings scatter. Potencies beside an inconclusive call are fits to weak or partial responses and may not hold up.

assay: qHTS assay for MDR1-selective chemotherapeutics: Primary screen using the parental adenocarcinoma cell KB-3-1; conditions: KB-3-1 viability, CellTiter-Glo ATP luminescence, 72 h; activity change, negative = cytotoxic: at 46.1 µM (top of the series); further: nearly all actives have a fitted effect of over 60% in size
How it was run: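 Using CellTiter-Glo luminescence, growth of non-resistant KB-3-1 adenocarcinoma cells is assessed 72 h after pin-tool compound addition at 37 °C. Normalized responses across the concentration series yield fitted curves.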
On the % scale 0 is the no-effect control and ±100 the full control effect; potency means the concentration at half of the fitted maximal effect.

Compound	activity change, negative = cytotoxic	Potency
CCOc1ccccc1N1CC(C(=O)Nc2c(C)n(C)n(-c3ccccc3)c2=O)CC1=O (stereo not drawn)	inactive: 20.1%	
COc1cc2c(cc1NC(=S)Nc1cccc(C(F)(F)F)c1)oc1ccccc12		inconclusive: 23.1 µM [cytotoxic, single point]
O=C(NC1CCCCC1)c1ccc2ccccc2c1	inactive: -3.56%	
CCC(CC)C(=O)Nc1cccc(C(=O)Nc2ccc(S(=O)(=O)Nc3ccc(C)cc3)cc2)c1		inconclusive: 18.4 µM [cytotoxic, partial curve, poor fit]
CCN(C(=O)COC(=O)c1ccccc1NCc1ccco1)c1c(N)n(Cc2ccccc2)c(=O)[nH]c1=O		inconclusive: 23.1 µM [cytotoxic, single point]
C=CC[C@@H](CC(=O)N[C@H](CO)Cc1ccccc1)C(=O)N[C@@H](COC(=O)[C@H](CC=C)CC(=O)OC(C)(C)C)Cc1ccccc1		inconclusive: 18.4 µM [cytotoxic, single point]
CCOC(=O)c1c(C)[nH]c(C(=O)COC(=O)C2=NNC(=O)CC2)c1C		inconclusive: 7.31 µM [cytotoxic, partial curve]
COc1ccccc1-c1cnc(C(O)c2ccc(F)cc2C)[nH]1 (stereo not drawn)	inactive: -27.1%	
CCOC(=O)c1c(C)c(C)n2c1NC(=O)C2	inactive: 0%	
COc1cc(CC(=O)NCc2ccc3c(c2)OCO3)cc(OC)c1OC		inconclusive: 14.6 µM [rising, partial curve, poor fit]
COc1ccc(-c2csc(Nc3ccc(S(N)(=O)=O)cc3)n2)cc1		inconclusive: 22.4 µM [cytotoxic, single point]
COc1ccccc1CNC(=O)[C@H](C)N1C(=O)N2CCc3c([nH]c4ccccc34)[C@@]2(C)C1=O		inconclusive: 20.6 µM [cytotoxic, single point]
O=C(Cn1c(=O)n(-c2ccccc2)c(=O)c2c3c(sc21)CCC3)c1ccc(Br)cc1	inactive: 3.76%	
CCCCOc1ccc(CSC(=N)N)cc1Cl	inactive: -19.5%	
O=C(NCCN1CCOCC1)C1CCC(=O)N1Cc1ccc(F)cc1 (stereo not drawn)		inconclusive: 29.1 µM [cytotoxic, single point]
CCC(C)(C)C1CCC2(CC1)NC(=O)N(CC(=O)N1CCN(S(=O)(=O)c3cc(C)ccc3C)CC1)C2=O (stereo not drawn)		inconclusive: 7.31 µM [cytotoxic, partial curve, poor fit]
O=C1CNc2cc(Cl)ccc2N1		inconclusive: 29.1 µM [cytotoxic, partial curve, poor fit]
O=C(NN=Cc1cccc2ccccc12)C(=O)NN=Cc1cccc2ccccc12		inconclusive: 4.61 µM [rising, full curve, poor fit]
Clc1ccc2[nH]c3c(N4CCC5(CC4)OCCO5)ncnc3c2c1		active: 14.6 µM
O=C(CCN1CCOCC1)N/N=C/c1cc([N+](=O)[O-])ccc1OC(F)F	inactive: -0.506%	
COC(=O)[C@]1(C)N[C@H](c2ccc(-c3ccc(Cl)c(Cl)c3)cc2)[C@@H]2C(=O)N(C)C(=O)[C@@H]21		inconclusive: 29.1 µM [cytotoxic, single point]
COc1cccc(NC(=O)c2cc3ccccc3o/c2=N\O)c1	inactive: -13.9%	

Look-ups from the entries so far:
In activity change, negative = cytotoxic, CCOC(=O)c1c(C)c(C)n2c1NC(=O)C2 has the entry inactive: 0%
In Potency, COc1cc2c(cc1NC(=S)Nc1cccc(C(F)(F)F)c1)oc1ccccc12 has the entry inconclusive: 23.1 µM [cytotoxic, single point]
In activity change, negative = cytotoxic, O=C(Cn1c(=O)n(-c2ccccc2)c(=O)c2c3c(sc21)CCC3)c1ccc(Br)cc1 has the entry inactive: 3.76%

Next part:

Compound	activity change, negative = cytotoxic	Potency
Cc1noc(-c2ccc(-c3noc(-c4ccc(Cl)cc4)n3)cc2)n1		inconclusive: 16.4 µM [rising, partial curve]
O=C(NCCc1nnc2ccc(N3CCCC3)nn12)c1ccccc1		inconclusive: 29.1 µM [rising, single point]
COc1cc(OC)c(OC)cc1CNC(=O)c1cccc(S(=O)(=O)N2CCc3ccccc3C2)c1		inconclusive: 23.1 µM [cytotoxic, partial curve, poor fit]
CCc1ccccc1Nc1nc(N)nc(COC(=O)CCC(=O)c2ccc(F)cc2)n1		inconclusive: 20.6 µM [cytotoxic, partial curve]
Clc1ccc(-c2c[n+](Cc3ccc(Cl)cc3Cl)c3n2CCCCC3)cc1		inconclusive: 9.2 µM [cytotoxic, partial curve, poor fit]
COc1ccc(CCn2c(-c3ccco3)nc3ccccc3c2=O)cc1OC	inactive: -0.658%	
OCCCNc1nccc(-c2cc(Nc3cccc(Cl)c3)ncn2)n1		inconclusive: 0.461 µM [cytotoxic, full curve]
Cc1onc(-c2ccccc2)c1C(=O)NCc1ccco1	inactive: -0.0861%	
Cc1ccc(-n2nnnc2SCn2nnc3ccccc3c2=O)c(C)c1		inconclusive: 25.9 µM [cytotoxic, partial curve, poor fit]
COc1ccc(OC)c(/C=C/c2c3ccccc3cc[n+]2C)c1		inconclusive: 0.517 µM [cytotoxic, full curve, poor fit]
CNc1ccc(Br)cc(C(=O)/C=C/c2cccc(Cl)c2Cl)c1=O		active: 16.4 µM
CCOC(=O)C=Cc1ccc(C(=O)OCC)[nH]1		active: 7.31 µM
CCOc1ccccc1CNS(=O)(=O)c1ccc(-c2cnc(C3CC3)o2)cc1		active: 3.26 µM and active: 1.16 µM
COc1ccc(-n2c(C)nc3c(cnn3-c3ccc(C)cc3)c2=O)cc1	inactive: 0%	
COc1ccc(CN(C)C(=O)COC(=O)c2cc([N+](=O)[O-])ccc2N2CCCC2)c(OC)c1OC		inconclusive: 6.51 µM [cytotoxic, partial curve, poor fit]
Cc1cccc(-n2c(C)cc(/C=N/NC(N)=S)c2C)c1		inconclusive: 25.9 µM [cytotoxic, single point]
FC(F)(F)c1cccc(CN2CCC(c3cc(-c4cccs4)n[nH]3)CC2)c1		inconclusive: 20.6 µM [cytotoxic, single point]
NS(=O)(=O)c1ccc(CCNC(=O)CN2CCN(Cc3cccc(C(F)(F)F)c3)CC2)cc1		inconclusive: 9.2 µM [cytotoxic, partial curve]
Cc1ccc(-c2noc(C3CCCN(C(=O)c4ccc(C(C)(C)C)cc4)C3)n2)o1 (stereo not drawn)	inactive: -14%	
CC(C)N(C1=N/C(=C\c2ccco2)C(=O)N1c1ccccc1)C(C)C	inactive: -2.4%	
O=C(CCCc1ccccc1)NC(c1ccco1)c1cc(Cl)c2cccnc2c1O (stereo not drawn)		inconclusive: 2.59 µM [cytotoxic, full curve, poor fit]
